Our source for the cell number change and AC50 values is PubChem BioAssay AID2685 (National Center for Advancing Translational Sciences (NCATS), 2010).

The other results are listed elsewhere or left out. These are further read-outs of the screen, such as a control signal, another cell line or another target. No call is given for them. Most of these compounds were active or inconclusive in the main read-out, so they are no random draw. Words in brackets tell the shape of the fitted curve; partial curves, single points and poor fits give uncertain potencies.

A short description of the assay: qHTS Assay for Lipid Storage Modulators in Drosophila S3 Cells.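 For cell number change: cells counted by Cell Tracker Red CMTPX staining in the red channel.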 Particulars: BODIPY lipid droplet fluorescence, 18-24 h; for cell number change: measured here: cell count max response, cells fed with added oleic acid. Put shortly:
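Drosophila S3 cells got compounds at several concentrations plus oleic acid (400 uM solution). Laser-scanning cytometry with 488 nm excitation read lipid droplets at 500-530 nm and cells at 575-640 nm. Percent activity was relative to 20 uM Triacsin C.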

[1] abbreviates: measured here: cell number channel AC50, cells fed with added oleic acid.
Setting [2] is: measured here: lipid fluorescence (Fed channel) AC50, cells fed with added oleic acid.

Regarding `O=C(NC(=S)N1CCCCC1)C12CC3CC(CC(C3)C1)C2`, the cell number change is -6.84%. As to `CC(C)(C)NC(=O)C(=O)NCc1ccccn1`, the cell number change is 41.1%. In addition, under setting [1], the half-maximal activity concentration (AC50) was 6.51 µM [rising, full curve]. Also, under setting [2], the half-maximal activity concentration (AC50) is 8.2 µM [rising, partial curve, poor fit]. For `O=C(NC(=S)NCc1ccc(-c2nc3ccccc3s2)cc1)c1ccco1`, the cell number change was -61.9%. The concentration at half-maximal activity (AC50) under setting [1] was 23.1 µM [falling, single point]. For the same molecule, the AC50 under setting [2] is 20.6 µM [falling, single point].

Turning to `CSc1ccc(-c2nnn(Cc3ccccn3)n2)cc1`, the cell number change was determined as 34.1%. For the same molecule, the concentration at half-maximal activity (AC50) under setting [1] is 23.1 µM [rising, partial curve, poor fit]. `O=C(NC(=S)Nc1ccc(S(=O)(=O)Nc2nccs2)cc1)c1ccc(F)cc1`: the cell number change was -8.19%. Turning to `CCn1c(=NC(=O)c2ccc(S(=O)(=O)N(C)C)cc2)sc2cccc(OC)c21`, the cell number change was -9.79%. Also, the AC50 under setting [2] was 1.03 µM [rising, full curve, poor fit]. Regarding `CC(=O)c1ccccc1NC(=O)C1CCCN(C(=O)c2ccc(Cl)cc2)C1` (stereo unspecified), the cell number change was -11.7%. The half-maximal activity concentration (AC50) under setting [2] is 7.31 µM [rising, partial curve, poor fit]. Turning to `CCN(CC)S(=O)(=O)c1cc(NS(=O)(=O)c2ccccc2)ccc1C`, the cell number change amounted to 22%. Moreover, under setting [2], the AC50 was 29.1 µM [rising, single point].

As to `CCC(C)NC(=O)CCCc1ccccc1` (stereo unspecified), the cell number change is -9.26%. Further, the AC50 under setting [1] was 0.184 µM [falling, full curve, poor fit]. The half-maximal activity concentration (AC50) under setting [2] was 1.46 µM [falling, partial curve, poor fit]. With `Cc1ccc(OCCC(=O)OCC(=O)NCCc2ccccc2)cc1`, the half-maximal activity concentration (AC50) under setting [2] is 6.51 µM [rising, single point]. Take `Cc1sc(NC(=O)CSc2nnnn2C)c(C#N)c1C`: the cell number change was found to be 30.3%. In addition, the AC50 under setting [2] was 0.116 µM [rising, full curve, poor fit].

For the molecule `CCOC(=O)N1CCC(NC(=O)c2cc3c(-c4ccccc4F)nn(C)c3s2)CC1`, the cell number change is -12.5%. For the same molecule, under setting [2], the AC50 is 4.61 µM [rising, single point]. Turning to `Cc1cc2[nH]c(=O)cc(-c3ccccc3)n2n1`, the cell number change is -18.1%. As for `Nc1ccc2nc3c(=O)n(C4CCCCC4)c(=O)[nH]c3nc2c1`, the cell number change is -78.6%. In addition, under setting [1], the concentration at half-maximal activity (AC50) was 20.6 µM [falling, partial curve]. For the same molecule, under setting [2], the AC50 is 23.1 µM [falling, partial curve]. With `CCOC(=O)c1ccc(N2C(=O)CC(N3CCN(C/C=C/c4ccccc4)CC3)C2=O)cc1` (stereo unspecified), the cell number change turned out to be 39.7%. Besides, under setting [1], the AC50 was 16.4 µM [rising, single point]. Further, under setting [2], the AC50 was 16.4 µM [rising, partial curve].

Turning to `CC(=O)NCCCc1nc2ccccc2n1Cc1ccc(C)cc1`, the cell number change amounted to 29.8%. Besides, the AC50 under setting [2] was 6.51 µM [falling, single point]. Take `C=CCn1c(CSCc2ccc(C)cc2)nnc1SCC(=O)NCc1ccccc1`: the cell number change was determined as 46.9%. In addition, the half-maximal activity concentration (AC50) under setting [1] is 11.6 µM [rising, partial curve]. In addition, the concentration at half-maximal activity (AC50) under setting [2] was 2.91 µM [falling, partial curve].

As to `COc1ccccc1NC(=O)Nc1nc(CC(=O)Nc2ccc(F)c(F)c2)cs1`, the AC50 under setting [1] was 1.64 µM [rising, partial curve]. Take `COc1ccc(/C=C2\SC(=S)N(NS(=O)(=O)c3ccccc3)C2=O)c(OC)c1`: the cell number change came out at 57%. In addition, the AC50 under setting [1] was 7.31 µM [rising, partial curve, poor fit]. The AC50 under setting [2] is 29.1 µM [rising, single point]. With `Cn1c(=O)c(C(N)=S)cn(-c2ccccc2)c1=O`, the cell number change was found to be 6.94%.

For the molecule `CCC(CC)C(=O)NCc1cccnc1`, the cell number change worked out at 40.8%. For the same molecule, under setting [1], the AC50 is 3.66 µM [rising, full curve]. Besides, the concentration at half-maximal activity (AC50) under setting [2] was 3.26 µM [rising, full curve]. In the case of `COc1cccc(NC(=O)CN2C(=O)NC(C)(CC(C)C)C2=O)c1` (stereo unspecified), the cell number change worked out at 61.2%. Besides, the AC50 under setting [2] is 1.16 µM [rising, full curve]. For `COc1ccc(S(=O)(=O)CCC(=O)Nc2c(C)cccc2C)cc1`, the cell number change was -7.8%. In addition, the half-maximal activity concentration (AC50) under setting [2] is 2.91 µM [rising, single point]. For the molecule `CC(C)c1nc(SCC(=O)Nc2ccc(C(=O)O)cc2)c2c3c(sc2n1)CCCC3`, the cell number change was found to be 15%. With `O=C(NCCc1ccc(Cl)cc1)c1ccc2ccccc2n1`, the cell number change is 5%. Further, under setting [2], the half-maximal activity concentration (AC50) was 16.4 µM [rising, single point]. Consider `Cc1ccc(OCCC(=O)Nc2ccc(C)c(S(=O)(=O)N3CCOCC3)c2)cc1`, for which the cell number change stood at 5.33%. Under setting [2], the concentration at half-maximal activity (AC50) is 0.0731 µM [rising, full curve, poor fit]. With `O=C(CCCCCN1C(=O)CCC1=O)Nc1ncn[nH]1`, the cell number change is -54.4%. Under setting [1], the AC50 was 20.6 µM [falling, partial curve, poor fit]. Take `CC(NC(=O)c1ccccc1Br)c1nnc(SCC(=O)NC2=NCCS2)n1C` (stereo unspecified): the cell number change was -18.4%. The same measure, in the same setting: in the case of `CCOc1ccc(S(=O)(=O)n2cc(-c3ccccc3)c(N)n2)cc1` it was 2.23%. As for `Cc1ccc(S(=O)(=O)c2nnn3c2nc(N2CCOCC2)c2ccccc23)c(C)c1`, the AC50 under setting [1] was 0.092 µM [rising, partial curve, poor fit].

`Cc1nc(N)ncc1Sc1ccc(Cl)cc1`: the cell number change was found to be 16.2%. Moreover, the half-maximal activity concentration (AC50) under setting [2] was 29.1 µM [rising, single point]. In the case of `Cc1ccc(NCC(=O)N/N=C/c2cccn2C)cc1`, the cell number change amounted to 11.4%. In addition, the AC50 under setting [2] was 32.6 µM [rising, single point]. Take `O=C(CSc1n[nH]c(-c2ccco2)n1)Nc1ccccc1F`: the cell number change came out at 10.4%. As for `COc1cccc(Cn2nnc3c(=O)[nH]c(C4CCCN(C(=O)c5ccccc5Cl)C4)nc32)c1` (stereo unspecified), the cell number change is -79.8%. The half-maximal activity concentration (AC50) under setting [1] was 20.6 µM [falling, partial curve]. Also, the half-maximal activity concentration (AC50) under setting [2] is 9.2 µM [falling, partial curve].

In the case of `Cc1cc(N/C(=N\S(=O)(=O)c2ccc(F)cc2F)c2ccccc2)no1`, the cell number change is 20.5%. Besides, the AC50 under setting [2] is 0.731 µM [rising, single point]. Regarding `CCN(CC)CCNC(=O)c1[nH]c2ccc(OCc3ccccc3)cc2c1C`, the cell number change was 9.38%.

For the molecule `COc1ccc2ccccc2c1C(O)c1nccn1C` (stereo unspecified), the cell number change was -5.85%.

For `CCN1CCSc2ccc(C(=O)NCc3cccc(Br)c3)cc21`, the cell number change amounted to 1.15%. In the case of `Oc1ccc(Cl)cc1CNCc1cccc2ccccc12`, the cell number change was -15.2%. The AC50 under setting [1] is 4.11 µM [falling, single point]. Regarding `Cc1cc(C(=O)NNC(=O)c2sccc2C)c(C)o1`, the cell number change is -7.98%. Under setting [2], the AC50 was 9.2 µM [rising, partial curve, poor fit]. For `O=C(O)c1cnn(-c2nc(-c3ccc(F)cc3)cs2)c1C(F)(F)F`, the cell number change was -45.5%. Also, the AC50 under setting [1] was 1.3 µM [falling, full curve]. Besides, under setting [2], the concentration at half-maximal activity (AC50) was 0.92 µM [falling, full curve]. `CS(=O)(=O)N(Cc1ccc(F)cc1)Cc1nc2ccccc2c(=O)[nH]1`: the cell number change is 19.5%. Still for that read-out and setting: the value for `CC(C)n1cc(NC(=O)COc2ccccc2Cl)cn1` was 18.1%. With `C=CCn1c(SCC(N)=O)nnc1-c1cccc(Br)c1`, the cell number change was 5.37%. Further, the half-maximal activity concentration (AC50) under setting [1] was 0.116 µM [falling, single point]. Further, under setting [2], the concentration at half-maximal activity (AC50) is 2.31 µM [rising, partial curve]. Take `CCCC1CCC(=C(C#N)C(N)=O)CC1` (stereo unspecified): the cell number change worked out at 6.44%.

In the case of `CN(C)c1ccc(/C=C2\C(=N)N3N=C(CC(=O)N4CCCCC4)SC3=NC2=O)cc1`, the cell number change came to 64%. Further, the half-maximal activity concentration (AC50) under setting [1] was 16.4 µM [rising, single point]. With `CCNC(=O)NC(=O)C(C)Oc1ccc(C(=O)OC)cc1` (stereo unspecified), the cell number change was -2.22%. The AC50 under setting [2] was 1.46 µM [falling, full curve, poor fit].

As to `COc1cccc(N2CCN(S(=O)(=O)c3ccc4c(c3)oc(=O)n4C)CC2)c1`, the cell number change was determined as 59.2%. As for `C/C(=N\NC(=O)c1ccc(CSc2nncn2C)cc1)c1ccc(Cl)cc1`, the cell number change was -58.6%. Moreover, the concentration at half-maximal activity (AC50) under setting [1] is 20.6 µM [falling, partial curve]. For the same molecule, the AC50 under setting [2] was 3.26 µM [rising, partial curve, poor fit]. Take `COc1ccc(-n2nc(C(=O)NCC(=O)N3CC(C)CC(C)C3)c3ccccc3c2=O)cc1` (stereo unspecified): the cell number change is -6.76%. Also, under setting [2], the concentration at half-maximal activity (AC50) is 0.58 µM [falling, single point]. Consider `CC(Oc1ccc(Cl)cc1Cl)C(=O)NN=C1CCN(C)CC1` (stereo unspecified), for which the cell number change amounted to 9.11%. Under setting [2], the AC50 is 16.4 µM [falling, single point]. For `CC(C)N(CC(N)=O)c1ncnc2sc(-c3ccccc3)cc12`, the cell number change was -13.9%. Under setting [2], the AC50 is 29.1 µM [rising, single point]. Take `CC(C)(C)NC(=O)NC(=O)CSc1ccc(S(=O)(=O)N2CCOCC2)cn1`: the cell number change is -3.16%. In addition, under setting [2], the AC50 is 5.17 µM [falling, single point]. With `COc1cc(C(=O)Nc2nnc(S(=O)(=O)N3CCCCCC3)s2)cc(OC)c1OC`, the cell number change was 2.67%. In addition, under setting [2], the concentration at half-maximal activity (AC50) is 20.6 µM [falling, single point]. For the molecule `Cn1nc(C(F)(F)F)c(C#N)c1N1CCN(c2ccc(F)cc2)CC1`, the cell number change worked out at 42%. In addition, under setting [1], the AC50 is 1.3 µM [rising, full curve]. As to `Cc1nc(CN2CCN(Cc3nc(C(c4ccccc4)c4ccccc4)no3)CC2)cs1`, the cell number change was -12.7%. For the same molecule, under setting [2], the concentration at half-maximal activity (AC50) is 0.184 µM [falling, full curve, poor fit]. For the molecule `CCSc1nnc(-c2cccs2)o1`, the cell number change is -52.9%. The AC50 under setting [1] is 29.1 µM [falling, single point]. Also, the AC50 under setting [2] is 29.1 µM [falling, single point].

Take `CNC(=O)/C(=C/c1ccc2c(c1)OCO2)NC(=O)c1ccc(Br)cc1`: the cell number change came to 15.5%. Moreover, the AC50 under setting [2] was 1.46 µM [rising, partial curve, poor fit]. On to `CN1CCN(C2=C(Cl)C(=O)N(c3ccc(Cl)cc3)C2=O)CC1`, for which the cell number change was -3.03%. Also, the half-maximal activity concentration (AC50) under setting [2] is 29.1 µM [falling, single point].

In the case of `Oc1c(C=C2N=c3ccccc3=N2)sc(=S)n1-c1ccccc1`, the cell number change is -9.15%. Further, the concentration at half-maximal activity (AC50) under setting [2] was 6.51 µM [falling, single point].

On to `COCCNC(=O)c1onc(CSc2ccc(F)cc2)c1C(=O)NCCOC`, for which the cell number change was determined as 22.6%. Moreover, under setting [2], the concentration at half-maximal activity (AC50) is 8.2 µM [rising, partial curve]. `Cn1c(Cc2c[nH]c3ccccc23)n[nH]c1=S`: the cell number change was found to be 107%. For the same molecule, the AC50 under setting [1] was 20.6 µM [rising, single point]. With `CCCNC(=O)CSc1nnc(-c2ccc(F)cc2)o1`, the cell number change worked out at 19.5%. Also, under setting [2], the AC50 is 1.16 µM [rising, single point].

As a reminder, the AC50 is the midpoint of the concentration-response curve, whichever way the signal moves.
